Record: PubChem BioAssay AID1508597 (Cure First, 2020)

Purpose: 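Knock-downs altering ovarian cancer cell survival with or without PARP inhibitor rucaparib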 (primary screen)
Cells: human ovarian carcinoma lines grown from tumours: OCI-P5x (papillary serous) and OCI-C5x (clear cell)
Reagents: siRNA pool against human genes, 1.25 pmol siRNA per well
Timing: 72 h or 96 h, depending on the cell culture
Conditions: rucaparib 20 µM (about IC30) or vehicle, present until read-out
Rucaparib or vehicle: Vehicle
Cell line: OCI-P5x (serous)
Measurement: 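ATP luminescence measured at 72 or 96 h according to the culture, then normalised and expressed as percent viability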
Reading the numbers: viability, normalised: higher = more viable cells remaining
Call rule: 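a well counts as a hit if its normalised viability is under 80 percent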
Meaning of the calls: active = viability under 80%; inactive = viability 80% or more
Shown is an unselected part of the about 2,100 reagents, in one setting of the screen. 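Calls flag viability under 80% in either arm, not effects specific to rucaparib; the reference for percent is not stated.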 Entries without a mark were called inactive. Some reagents were tested in more than one well and are listed for each. Not given: the 100% reference.

target gene | technical replicate | viability, normalised (%)
BANP | 1 | 90.1
BANP | 2 | 108
BANP | 3 | 74.9 (active)
DDB1 | 1 | 60.6 (active)
DDB1 | 1 | 72.4 (active)
DDB1 | 2 | 71.3 (active)
DDB1 | 2 | 65 (active)
DDB1 | 3 | 73.4 (active)
DDB1 | 3 | 59.9 (active)
MSX1 | 1 | 79.8 (active)
MSX1 | 2 | 83
MSX1 | 3 | 82.7
PDGFRA | 1 | 137
PDGFRA | 2 | 139
PDGFRA | 3 | 119
PTPRC | 1 | 35.7 (active)
PTPRC | 2 | 58.4 (active)
PTPRC | 3 | 68.1 (active)
NME1 | 1 | 82.6
NME1 | 1 | 55.7 (active)
NME1 | 2 | 107
NME1 | 2 | 65.7 (active)
NME1 | 3 | 81.6
NME1 | 3 | 126
PHF5A | 1 | 45.5 (active)
PHF5A | 2 | 44.3 (active)
PHF5A | 3 | 86.6
ACTR8 | 1 | 60.4 (active)
ACTR8 | 2 | 42.4 (active)
ACTR8 | 3 | 113
SYK | 1 | 86
SYK | 2 | 93
SYK | 3 | 79.1 (active)
JUNB | 1 | 86.2
JUNB | 2 | 94.2
JUNB | 3 | 137
SLC16A2 | 1 | 53.1 (active)
SLC16A2 | 2 | 54.9 (active)
SLC16A2 | 3 | 65.9 (active)
ACTL6B | 1 | 55.9 (active)
ACTL6B | 2 | 62.5 (active)
ACTL6B | 3 | 118
ARL8A | 1 | 34.6 (active)
ARL8A | 2 | 52.3 (active)
ARL8A | 3 | 31.5 (active)
CYLD | 1 | 68.7 (active)
CYLD | 2 | 81.3
CYLD | 3 | 77.9 (active)
TSSK6 | 1 | 97.6
TSSK6 | 2 | 77.2 (active)
TSSK6 | 3 | 78.5 (active)
CYP7A1 | 1 | 76.7 (active)
CYP7A1 | 2 | 82.3
CYP7A1 | 3 | 80.5
DAP3 | 1 | 60.4 (active)
DAP3 | 2 | 61.6 (active)
DAP3 | 3 | 71.7 (active)

Part of the list above, set out differently.
| target gene | technical replicate | viability, normalised (%) |
| --- | --- | --- |
| SLC16A2 | 2 | 54.9 (active) |
| SLC16A2 | 3 | 65.9 (active) |
| ACTL6B | 1 | 55.9 (active) |
| ACTL6B | 2 | 62.5 (active) |
| ACTL6B | 3 | 118 |
| ARL8A | 1 | 34.6 (active) |
| ARL8A | 2 | 52.3 (active) |
| ARL8A | 3 | 31.5 (active) |
